These results are taken from article PMC6599889.

Protein sequences, listed by entry. Tags and fused reporters are not part of them. Lines headed by an entry give the natural chain unless they say otherwise; changes in a name come on top. Chains listed by the source or under a name are the forms on record and can include a tag or linker.
UniProt P14416: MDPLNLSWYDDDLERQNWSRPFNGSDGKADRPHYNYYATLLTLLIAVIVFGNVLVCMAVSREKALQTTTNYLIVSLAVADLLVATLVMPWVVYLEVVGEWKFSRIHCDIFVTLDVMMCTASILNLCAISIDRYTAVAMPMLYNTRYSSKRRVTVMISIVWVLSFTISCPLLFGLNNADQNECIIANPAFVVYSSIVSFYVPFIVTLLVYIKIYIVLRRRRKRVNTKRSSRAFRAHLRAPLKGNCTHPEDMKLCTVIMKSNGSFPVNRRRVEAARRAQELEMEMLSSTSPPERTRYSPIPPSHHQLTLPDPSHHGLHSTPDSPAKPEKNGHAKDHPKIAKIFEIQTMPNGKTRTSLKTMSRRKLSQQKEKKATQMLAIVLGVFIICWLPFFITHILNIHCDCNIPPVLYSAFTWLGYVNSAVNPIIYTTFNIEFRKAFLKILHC
D2RS-Td-Tomato (short isoform of the dopamine 2 receptor tagged with Td-Tomato) (P14416-2, form named): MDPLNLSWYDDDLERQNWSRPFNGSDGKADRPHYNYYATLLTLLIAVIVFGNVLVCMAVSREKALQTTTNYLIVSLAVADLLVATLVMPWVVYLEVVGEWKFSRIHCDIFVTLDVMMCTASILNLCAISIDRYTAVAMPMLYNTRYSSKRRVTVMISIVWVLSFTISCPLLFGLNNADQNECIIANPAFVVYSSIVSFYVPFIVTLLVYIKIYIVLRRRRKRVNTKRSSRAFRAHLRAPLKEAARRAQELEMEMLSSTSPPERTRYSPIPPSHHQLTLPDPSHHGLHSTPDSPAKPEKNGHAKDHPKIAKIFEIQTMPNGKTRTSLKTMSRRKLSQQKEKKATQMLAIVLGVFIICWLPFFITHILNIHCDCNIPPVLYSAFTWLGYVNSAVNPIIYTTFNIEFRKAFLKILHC

For assay [1], the target named is T1, GPR37-eGFP (human G Protein-Coupled Receptor 37 fused to enhanced Green Fluorescent protein) (human) (UniProt O15354).
T1 sequence: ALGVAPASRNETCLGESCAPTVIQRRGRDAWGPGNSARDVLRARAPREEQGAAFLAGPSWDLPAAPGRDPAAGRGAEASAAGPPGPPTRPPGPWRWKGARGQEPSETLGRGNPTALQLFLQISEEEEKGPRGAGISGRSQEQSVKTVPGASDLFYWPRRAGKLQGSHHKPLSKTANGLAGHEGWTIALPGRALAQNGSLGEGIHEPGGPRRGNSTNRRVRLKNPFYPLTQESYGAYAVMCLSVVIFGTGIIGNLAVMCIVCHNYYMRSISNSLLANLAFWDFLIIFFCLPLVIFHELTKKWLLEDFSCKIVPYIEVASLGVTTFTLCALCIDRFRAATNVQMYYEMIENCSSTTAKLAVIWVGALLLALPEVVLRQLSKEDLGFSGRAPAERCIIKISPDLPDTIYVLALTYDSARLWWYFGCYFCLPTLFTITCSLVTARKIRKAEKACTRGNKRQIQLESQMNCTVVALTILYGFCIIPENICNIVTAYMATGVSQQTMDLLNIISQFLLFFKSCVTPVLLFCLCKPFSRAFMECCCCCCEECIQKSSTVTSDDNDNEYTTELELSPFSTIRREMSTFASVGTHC
The experiment in a line: fluorescence cross-correlation spectroscopy (FCCS); live N2a cells, apical plasma membrane, 37 C, 5% CO2; eGFP-tagged GPR37 or GPR37L1 and Td-Tomato-tagged D2R isoform; relative cross-correlation amplitude (RCCA); cells untreated or treated with 4-PBA for 48 h and/or 100 nM pramipexole.

For assay [2], the target named is T1, GPR37-eGFP (human G Protein-Coupled Receptor 37 fused to enhanced Green Fluorescent protein) (human). The experiment in a line: fluorescence cross-correlation spectroscopy (FCCS); live N2a cells, a subset of the cells; sequential illumination (only one laser at one time) to reduce bleed through; data not shown.
Assay [3] addresses T2, GPR37L1-eGFP (human G Protein-Coupled Receptor 37 like 1 fused to enhanced Green Fluorescent protein) (human) (UniProt O60883).
T2 sequence: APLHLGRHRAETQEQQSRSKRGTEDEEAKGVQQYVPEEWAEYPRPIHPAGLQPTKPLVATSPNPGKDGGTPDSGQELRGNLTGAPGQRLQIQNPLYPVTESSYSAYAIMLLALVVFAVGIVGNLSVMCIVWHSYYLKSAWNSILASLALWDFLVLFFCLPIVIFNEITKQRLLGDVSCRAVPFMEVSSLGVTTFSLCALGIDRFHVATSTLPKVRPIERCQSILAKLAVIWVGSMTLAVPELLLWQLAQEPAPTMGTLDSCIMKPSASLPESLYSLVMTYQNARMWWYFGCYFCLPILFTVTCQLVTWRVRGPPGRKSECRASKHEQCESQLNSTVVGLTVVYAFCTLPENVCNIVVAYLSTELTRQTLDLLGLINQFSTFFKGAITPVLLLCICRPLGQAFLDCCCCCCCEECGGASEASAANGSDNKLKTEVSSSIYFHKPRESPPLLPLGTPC
The experiment in a line: fluorescence cross-correlation spectroscopy (FCCS); live N2a cells, apical plasma membrane, 37 C, 5% CO2; eGFP-tagged GPR37 or GPR37L1 and Td-Tomato-tagged D2R isoform; relative cross-correlation amplitude (RCCA); cells untreated or treated with 4-PBA for 48 h and/or 100 nM pramipexole.

These are yes or no findings as the source states them, for the method shown. Some entries that bind do so weakly or less than the wild type. Tags and fused reporters may be left off the sequences shown.

As for “D2RL-Td-Tomato (long isoform of the dopamine 2 receptor tagged with Td-Tomato) (from UniProt P14416 1-443)”, the binding result in assay [1] and in assay [2] was “binds” throughout.
In the case of “D2RS-Td-Tomato (short isoform of the dopamine 2 receptor tagged with Td-Tomato) (from UniProt P14416-2 1-414)”, the binding result in assay [3] and in assay [1] was “binds” throughout.
